From US20200393345A1, “HEPARIN-BASED BLOOD SAMPLER WITHOUT PLATELET ACTIVATION” (Radiometer Medical ApS, priority 2017, published 2020)

Test: Anti-platelet drug interference test on ABL90 parameters
Settings: at the tested concentrations; MgSO4: Difference Fraction max. Interf.>2 on pH, N^+, K^+, Ca^2+, Cl^−, Lac

SMILES | Interference on assessed ABL parameters (overall)
O=S(=O)([O-])[O-].[Mg+2] [MgSO4] | shows interference
CC#CCC(C)[C@H](O)/C=C/[C@@H]1[C@H]2C/C(=C/CCCC(=O)O)C[C@H]2C[C@H]1O (stereo partly drawn) [Iloprost, iloprost] | no interference
CCCCS(=O)(=O)N[C@@H](Cc1ccc(OCCCCC2CCNCC2)cc1)C(=O)O [Tirofiban, tirofiban hydrochloride monohydrate] | no interference

Where a name gives a salt, the structure may show the parent alone.
